{
  "sequences": {"note": "Chains of the proteins cited; added tags and fusions are not shown.", "UniProt P35462, whole entry, looked up": "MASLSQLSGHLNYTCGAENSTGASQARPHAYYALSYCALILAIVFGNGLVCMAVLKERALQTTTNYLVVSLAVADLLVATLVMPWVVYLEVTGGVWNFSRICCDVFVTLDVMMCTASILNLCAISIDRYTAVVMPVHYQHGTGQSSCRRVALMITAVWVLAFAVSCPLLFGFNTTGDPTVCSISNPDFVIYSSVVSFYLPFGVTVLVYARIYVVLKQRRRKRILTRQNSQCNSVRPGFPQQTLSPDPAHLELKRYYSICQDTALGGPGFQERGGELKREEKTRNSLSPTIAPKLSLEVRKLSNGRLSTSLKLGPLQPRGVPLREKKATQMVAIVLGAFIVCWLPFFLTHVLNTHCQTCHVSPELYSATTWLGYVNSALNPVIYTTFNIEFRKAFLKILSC"},
  "source": "PubChem BioAssay AID652054",
  "about": "(National Center for Advancing Translational Sciences (NCATS), 2013)",
  "note": "Among all 360,000 compounds or so, about 9,100 (2.5%) were called active. Inconclusive means that the source gave no clear call. Such entries were picked first, then a sample of the others. No stated cut-off is given here; in the data, active means max response below about -50%; inconclusive means no clear call, values can overlap the other calls; inactive means above that. On the % scale 0 is the no-effect control and ±100 the full control effect.",
  "data": [
    {"target": "D(3) dopamine receptor (Homo sapiens) (UniProt P35462)", "assay": "qHTS of D3 Dopamine Receptor Antagonist: qHTS", "details": "D3R cells, DiscoveRx beta-arrestin luminescence, antagonist mode; stronger effect = lower value", "method_in_brief": "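Cells expressing the human receptor were seeded at 1500 cells/well, incubated overnight at 37 degrees C in 5% CO2, then exposed to library compounds with dopamine controls for 90 minutes at 37 degrees C before luminescent detection.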", "values": [
      {"smiles": "S=C(Nc1ccc(Cl)cc1)N1CCN(C2CCCCC2)CC1", "max response, negative = inhibition": "inconclusive: -34.4%"},
      {"smiles": "CCOC(=O)c1[nH]c2ccccc2c1NC(=O)CN1CCCCC1", "max response, negative = inhibition": "inconclusive: -45.8%"},
      {"smiles": "COc1cc(-c2c(-c3ccc4c(c3)OCO4)noc2C)ccc1F", "max response, negative = inhibition": "inconclusive: -34.9%"},
      {"smiles": "Cc1ccc(-c2nc(C(Cl)Cl)c3ccccc3n2)cc1", "max response, negative = inhibition": "active: -60%"},
      {"smiles": "O=[N+]([O-])c1ccc(C(O)CN2CCN(Cc3ccccc3)CC2)cc1", "note": "(stereo unspecified)", "max response, negative = inhibition": "inconclusive: -35.9%"},
      {"smiles": "CC(=O)N(C)C1=C(N2CCOCC2)C(=O)c2ccccc2C1=O", "max response, negative = inhibition": "active: -56.7%"},
      {"smiles": "O=C(O)c1cccc(Cn2c(Cl)c(/C=N/NC(=O)c3ccccc3Cl)sc2=O)c1", "max response, negative = inhibition": "inactive: 0.822%"},
      {"smiles": "CCc1ccc(C(=O)COC(=O)c2cncc(Br)c2)cc1", "max response, negative = inhibition": "inactive: 8.62%"},
      {"smiles": "Cc1ccsc1/C=N/NC(=O)c1ccc([N+](=O)[O-])cc1", "max response, negative = inhibition": "inconclusive: -41.2%"},
      {"smiles": "COc1ccccc1NC(=O)CN1CCC(n2nnc3cc(F)ccc32)CC1", "max response, negative = inhibition": "inconclusive: -31.1%"},
      {"smiles": "O=[N+]([O-])c1ccc(-c2cnc(SC(c3ccccc3)c3ccccc3)[nH]2)cc1", "max response, negative = inhibition": "inconclusive: -39.6%"},
      {"smiles": "O=C1NC[C@@H](CCCCN2C[C@H](Cc3ccc(O)cc3)N(Cc3ccccc3)C(=O)C2=O)N(CC2CCCCC2)C1=O", "max response, negative = inhibition": "inconclusive: -34.8%"},
      {"smiles": "CC(C)(C)NC(=O)COc1ccc(CNCc2ccccn2)cc1", "max response, negative = inhibition": "inconclusive: -32.1%"},
      {"smiles": "CCCc1c(C(=O)N/N=C(\\C)c2ccc(CC(C)C)cc2)nnn1-c1nonc1N", "max response, negative = inhibition": "inactive: -9.92%"},
      {"smiles": "C=Cc1ccc(CC2(C)C(=O)Nc3c(Cl)cccc32)cc1", "note": "(stereo unspecified)", "max response, negative = inhibition": "active: -66.8%"},
      {"smiles": "CCn1c(CCNC(=O)c2ccc(Cl)cc2Cl)n[nH]c1=S", "max response, negative = inhibition": "inconclusive: -39.8%"},
      {"smiles": "COC(=O)c1ccc(NC2(C#N)C(=O)Nc3ccccc32)cc1", "note": "(stereo unspecified)", "max response, negative = inhibition": "inconclusive: -39.8%"},
      {"smiles": "Cc1cccc(C)c1Cn1c(C)c(C(=O)NCc2cccc(Cl)c2)sc1=O", "max response, negative = inhibition": "active: -105%"},
      {"smiles": "CN1CCN(CC(=O)N(C)c2nc(-c3ccccc3)cs2)CC1", "max response, negative = inhibition": "inconclusive: -44.6%"},
      {"smiles": "COc1ccc(C2c3c(ncn(CCCO)c3=N)Oc3ccc4ccccc4c32)cc1OC", "note": "(stereo unspecified)", "max response, negative = inhibition": "inconclusive: -33.9%"},
      {"smiles": "O=C(NC(=S)Nc1ccc(Cl)cn1)C(c1ccccc1)c1ccccc1", "max response, negative = inhibition": "inconclusive: -43.4%"},
      {"smiles": "COc1cc(CN2CCC(C(=O)N3CCCC(C)C3)CC2)cc(OC)c1O", "note": "(stereo unspecified)", "max response, negative = inhibition": "inconclusive: -38.7%"},
      {"smiles": "Cc1cc(C)c2nc(NNC(=O)c3cc(-c4cccs4)nc4ccccc34)sc2c1", "max response, negative = inhibition": "inactive: 88.9%"},
      {"smiles": "COc1cc(-c2c(C#N)c(=O)[nH]c3c2c(C)nn3-c2ccccc2)ccc1O", "max response, negative = inhibition": "inconclusive: -41.4%"},
      {"smiles": "O=C1CN(C(=O)CSc2nc3cc(Cl)ccc3c(=O)n2Cc2ccccc2)c2ccccc2N1", "max response, negative = inhibition": "inconclusive: -36.6%"},
      {"smiles": "COc1ccccc1N(C(=O)c1ccncc1)c1nc(-c2ccc([N+](=O)[O-])cc2)cs1", "max response, negative = inhibition": "inactive: 8.17%"},
      {"smiles": "O=C(CN1CCCCCCC1)N/N=C/c1ccc(F)cc1F", "max response, negative = inhibition": "inactive: -29%"},
      {"smiles": "CC1=CC(=O)C=C(C)C1=NOC(=O)/C=C\\c1ccccc1", "max response, negative = inhibition": "inconclusive: -43.3%"},
      {"smiles": "O=C(CCN1C(=O)c2cccc3cccc(c23)C1=O)N1CCOCC1", "max response, negative = inhibition": "inactive: 1.44%"},
      {"smiles": "COc1ccc(-n2nc3c(N4CCC(C(=O)NCc5cccc(C)c5)CC4)nnc(C)c3c2C)cc1", "max response, negative = inhibition": "active: -58.5%"},
      {"smiles": "COc1ccccc1N1CCN(C(=O)C2CC2)CC1", "max response, negative = inhibition": "inactive: 0.524%"},
      {"smiles": "CC(=O)Nc1ccc(CN2CCCC(C(=O)c3cccc(C(F)(F)F)c3)C2)cc1", "note": "(stereo unspecified)", "max response, negative = inhibition": "inconclusive: -32.4%"},
      {"smiles": "Cc1cc2c(cc1C)N(C(=O)CCl)CC(=O)N2", "max response, negative = inhibition": "inactive: -15.3%"},
      {"smiles": "Cc1cc(C)cc(NC(=O)CSc2nc3nc(C)cc(C)c3c(=O)[nH]2)c1", "max response, negative = inhibition": "inconclusive: -35.9%"},
      {"smiles": "CCOc1ccc(N=Nc2ccc(O)c3ncccc23)cc1", "max response, negative = inhibition": "active: -58.4%"},
      {"smiles": "Cc1ccc(NC(=O)Nc2cccs2)cc1", "max response, negative = inhibition": "inconclusive: -45%"},
      {"smiles": "COC(=O)c1ccc(C)c(-n2c(=O)n(Cc3ccccc3)c(=O)c3[nH]cnc32)c1", "max response, negative = inhibition": "inconclusive: -35.1%"},
      {"smiles": "CCn1cc(C(=O)NCC2CCCO2)c(=O)c2cc(S(=O)(=O)N(C)C3CCCCC3)ccc21", "note": "(stereo unspecified)", "max response, negative = inhibition": "active: -51.9%"},
      {"smiles": "COc1ccc(S(=O)(=O)N2CCc3ccccc32)cc1[N+](=O)[O-]", "max response, negative = inhibition": "inactive: 4.21%"},
      {"smiles": "Cc1ccc(Nc2n[nH]c(C)c2[N+](=O)[O-])cc1", "max response, negative = inhibition": "inconclusive: -32%"},
      {"smiles": "CC(=O)/C(C(=N)N1CCN(Cc2ccccc2)CC1)=C(\\C)O", "max response, negative = inhibition": "active: -54.3%"},
      {"smiles": "Clc1ccc2c(N3CCOCC3)ccnc2c1", "max response, negative = inhibition": "inactive: -3.84%"},
      {"smiles": "COc1c(C)cc(Br)cc1C(=O)Nc1ccc(Cc2ccncc2)cc1", "max response, negative = inhibition": "inactive: 1.8%"},
      {"smiles": "CC(C)(C)C1=CC(=O)C(=O)C(C(C)(C)C)=C1", "max response, negative = inhibition": "inconclusive: -46.2%"},
      {"smiles": "Cc1cc2ccccc2n1CCNCc1c(C(=O)N2CCOCC2)nc2ccccn12", "max response, negative = inhibition": "inactive: 11.4%"},
      {"smiles": "Cc1cc(N2CC(C(=O)Nc3nccs3)CC2=O)ccc1C(C)C", "note": "(stereo unspecified)", "max response, negative = inhibition": "inactive: 13.2%"},
      {"smiles": "Cc1nn(C)c(Oc2cccc(Cl)c2)c1C(=O)Nc1ccc(F)cc1", "max response, negative = inhibition": "inactive: -4.91%"},
      {"smiles": "CCn1nc(NC(=O)c2ccco2)c2cc3ccccc3nc21", "max response, negative = inhibition": "inconclusive: -47.7%"},
      {"smiles": "COc1ccc([C@H]2C[C@H](n3cc(COC(=O)c4ccccc4)nn3)[C@@H](O)CN2Cc2cccs2)cc1", "max response, negative = inhibition": "inconclusive: -38%"},
      {"smiles": "CCN(CC)CCNC(=O)c1ccc2c(c1NCCO)C(=O)c1ccccc1C2=O", "max response, negative = inhibition": "inconclusive: -32.9%"},
      {"smiles": "O=c1[nH]c(-c2ccccn2)nc2sc(-c3ccccc3)cc12", "max response, negative = inhibition": "inconclusive: -35.8%"},
      {"smiles": "COc1ccccc1N1CCN(Cc2nc3ccccc3[nH]2)CC1", "max response, negative = inhibition": "inconclusive: -41.3%"},
      {"smiles": "CSCCC(C(=O)Nc1c(C)cccc1C)N1CCN(C/C=C/c2ccccc2)CC1", "note": "(stereo unspecified)", "max response, negative = inhibition": "active: -80.8%"},
      {"smiles": "Cc1c(CCOC(=O)c2cc([N+](=O)[O-])cc([N+](=O)[O-])c2)sc[n+]1CC(=O)c1ccccc1", "max response, negative = inhibition": "inactive: -4.38%"},
      {"smiles": "Cc1cccc(NC(=O)CSc2nc3c([nH]c4ccccc43)c(=O)n2C)c1", "max response, negative = inhibition": "active: -70.5%"},
      {"smiles": "CN(C)c1ccc(NC(=O)CN2CCC(C(=O)c3ccc(F)cc3)CC2)cc1", "max response, negative = inhibition": "active: -81.6%"}
    ]}
  ]
}
